Test results from patent US8846125B2, “Enaminocarbonyl compounds and their use” (Instytut Chemii Organicznej, Polska Akademia Nauk, priority 2009, dated 2014).
Some results were stated once for a whole list of compounds, not compound by compound. At least one compound was matched to its structure with a doubt left.

Columns and labels:
[1] = tested on: perception of sweet taste (panel members); assay: Qualitative evaluation of the perception of sweet taste by a 5-volunteer panel; assay type: in vivo, healthy men; parameters: key: +: perception of sweet taste; ++: very strong perception of sweet taste; −: absence of sweet taste; settings: 4000 ppm solution in 20% ethanol; 10 ml mouth rinse 20 s; 5 panel members
Protocol: Compounds according to the present invention destined for testing of their taste perception modifying properties were re-crystallized from ethanol or an ethanol-water mixture.
Qualitative evaluation of the perception of sweet taste; the examined substances were dissolved in a 20% ethanol and water mixture (vol./vol.).
Three initial solutions were formulated, containing: • the compound of example 1 (3-benzylaminomethylenedihydrofuran-2-one, 4000 ppm solution-400 mg in 100 ml 20% ethanol), • compound of example 2 ((R)-3-(1-phenylethylamino)methylenedihydrofuran-2-one, 4000 ppm solution-400 mg in 100 ml 20% ethanol), • compound of example 6 (2-benzylaminomethylenecyclopentanone, 4000 ppm solution−400 mg in 100 ml 20% ethanol).
Solutions of lower concentrations were obtained through dilution, to appropriate proportions, of the initial solutions with a 20% mixture of ethanol and distilled water (vol./vol.).
(§1) Evaluation of the degree of sweetness of the compounds according to the present invention was performed using a 5-volunteer panel—healthy men—henceforth referred to as panel members. All panel members were informed of the need to maintain safety procedures during the evaluation of the compounds according to the present invention, In particular, of the need to avoid swallowing the tested solutions. Each of the panel members received a 10 ml sample of a solution in a small vial and rinsed out their mouth with the entire contents of the vial for 20 seconds and then spit out the tested solution. Next, they carefully rinsed out their mouth with a large volume of distilled water (at least 150 ml) for at least 30 seconds. When the panel member felt that they no longer perceived any taste, they could proceed with the evaluation of the next solution.
During the first stage, the panel members qualitatively examined the taste of the three initial solutions containing 4000 ppm of a compound according to the present invention. The panel members all agreed that the solutions have an intensive sweet taste.
An additional qualitative evaluation was made of compounds according to the present invention from examples 4, 7 and 9, and compounds from comparative examples 1-19, in the form of 4000 ppm solutions. […] Solutions of compounds from the comparative examples lack a sweet taste.

[2] = tested on: sweet taste of saccharose (panel members); assay: Inhibition of sweet taste of a saccharose solution, qualitative panel evaluation; assay type: in vivo, healthy men; parameters: key: ++: complete inhibition of sweet taste; −: lack of inhibition of sweet taste; settings: 100 mg saccharose in 5 ml 20% aqueous ethanol plus 100 mg compound, vs saccharose solution without compound
Protocol: as §1
The inhibition of sweet taste of sweet substances or mixtures thereof by inhibitors of sweet taste according to the present invention was examine qualitatively according to the following procedure. Two samples of saccharose, each of 100 mg, are dissolved in 5 ml 20% of aqueous ethanol, and then one solution is supplemented with 100 mg of a compound of an example according to the present invention (compounds from examples 3, 5, and 8). Next, the taste of both solutions is evaluated using the procedure presented above, for the qualitative perception of a sweet taste. […] The study was also performed on compounds from comparative examples 1-19.

SMILES | Perception of sweet taste [1] | Inhibition of sweet taste [2]
Cc1ccccc1NC=C1CCOC1=O [compound 13, 3-(2-methylphenyl)aminomethylenedihydrofuran-2-one] | − | −
CCNC=C1CCOC1=O [compound 10, 3-ethylaminomethylenedihydrofuran-2-one] | − | −
COc1ccc(CNC=C2CCOC2=O)cc1 [Comparative Example 5, 3-(4-methoxybenzyl)aminomethylenedihydrofuran-2-one] | − | −
O=C1OCCC1=CNCc1ccc(Cl)cc1 [Comparative Example 4, 3-(4-chlorobenzyl)aminomethylenedihydrofuran-2-one] | − | −
O=C1OCCC1=CNCc1ccccc1Cl [Comparative Example 3, 3-(2-chlorobenzyl)aminomethylenedihydrofuran-2-one] | − | −
O=C1OCCC1=CNc1ccc(O)cc1 [compound 15, 3-(4-hydroxyphenyl)aminomethylenedihydrofuran-2-one] | − | −
O=C1OCCC1=CNc1cccc([N+](=O)[O-])c1 [compound 14, 3-(3-nitrophenyl)aminomethylenedihydrofuran-2-one] | − | −
COc1ccc(NC=C2CCOC2=O)cc1 [compound 16, 3-(4-methoxyphenyl)aminomethylenedihydrofuran-2-one] | − | −
O=C1OCCC1=CNCc1ccccn1 [Comparative Example 6, 3-(2-pirydylomethyl)aminomethylenedihydrofuran-2-one] | − | −
CC(C)(C)NC=C1CCOC1=O [compound 11, 3-tert-butylaminomethylenedihydrofuran-2-one] | − | −
CC(NC=C1CCOC1=O)c1ccccc1 (racemic) [Comparative Example 1, (RS)-3-(1-phenylethyl)aminomethylenedihydrofuran-2-one] | − | −
CNC=C1CCOC1=O [compound 8, 3-methylaminomethylenedihydrofuran-2-one] | − | −
O=C1OCCC1=CNCc1ccc(O)cc1 [compound 17, 3-(4-hydroxybenzyl)aminomethylenedihydrofuran-2-one] | − | −
O=C1OCCC1=CNCCc1ccccc1 [Comparative Example 2, 3-(2-phenylethyl)aminomethylenedihydrofuran-2-one] | − | −
O=C1OCCCC1=CNCc1ccccc1 [Comparative Example 7, 3-benzylaminomethylenetetrahydropiran-2-one] | − | −
